Test results reported in PMC8133684, “The URL1–ROC5–TPL2 transcriptional repressor complex represses the ACL1 gene to modulate leaf rolling in rice”.
No constants are given. Whether binding was seen depends on the method and setting. For some assays here: In cells and extracts the contact can be indirect. Some entries that bind do so weakly or less than the wild type. Tags and fused reporters may be left off the sequences shown.

T1: ROC5 fused to the N- or C-terminal part of firefly luciferase (rice (Oryza sativa L.)) (UniProt Q6EPF0)
T1 sequence: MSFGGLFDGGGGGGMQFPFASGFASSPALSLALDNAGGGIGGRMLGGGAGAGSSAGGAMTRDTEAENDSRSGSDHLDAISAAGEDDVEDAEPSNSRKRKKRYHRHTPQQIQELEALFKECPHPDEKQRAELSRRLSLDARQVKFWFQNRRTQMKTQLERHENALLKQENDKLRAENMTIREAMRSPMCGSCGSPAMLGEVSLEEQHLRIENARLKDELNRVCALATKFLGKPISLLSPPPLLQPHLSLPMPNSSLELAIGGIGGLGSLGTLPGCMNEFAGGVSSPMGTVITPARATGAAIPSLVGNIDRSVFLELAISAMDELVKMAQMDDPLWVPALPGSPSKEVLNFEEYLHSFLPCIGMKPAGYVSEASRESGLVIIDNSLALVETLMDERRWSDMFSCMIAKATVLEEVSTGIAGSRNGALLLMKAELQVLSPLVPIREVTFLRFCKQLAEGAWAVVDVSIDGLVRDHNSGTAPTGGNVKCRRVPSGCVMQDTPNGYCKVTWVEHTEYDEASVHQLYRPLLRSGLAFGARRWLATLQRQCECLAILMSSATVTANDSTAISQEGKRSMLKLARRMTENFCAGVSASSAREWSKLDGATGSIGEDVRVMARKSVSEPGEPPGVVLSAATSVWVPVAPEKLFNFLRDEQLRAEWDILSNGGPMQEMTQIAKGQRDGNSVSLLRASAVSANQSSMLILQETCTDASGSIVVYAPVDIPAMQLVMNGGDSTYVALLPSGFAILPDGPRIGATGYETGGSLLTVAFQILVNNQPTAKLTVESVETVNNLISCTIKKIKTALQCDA

T2: URL1 (ROC8) fused to the N- or C-terminal part of firefly luciferase (rice (Oryza sativa L.)) (UniProt Q69T58)
T2 sequence: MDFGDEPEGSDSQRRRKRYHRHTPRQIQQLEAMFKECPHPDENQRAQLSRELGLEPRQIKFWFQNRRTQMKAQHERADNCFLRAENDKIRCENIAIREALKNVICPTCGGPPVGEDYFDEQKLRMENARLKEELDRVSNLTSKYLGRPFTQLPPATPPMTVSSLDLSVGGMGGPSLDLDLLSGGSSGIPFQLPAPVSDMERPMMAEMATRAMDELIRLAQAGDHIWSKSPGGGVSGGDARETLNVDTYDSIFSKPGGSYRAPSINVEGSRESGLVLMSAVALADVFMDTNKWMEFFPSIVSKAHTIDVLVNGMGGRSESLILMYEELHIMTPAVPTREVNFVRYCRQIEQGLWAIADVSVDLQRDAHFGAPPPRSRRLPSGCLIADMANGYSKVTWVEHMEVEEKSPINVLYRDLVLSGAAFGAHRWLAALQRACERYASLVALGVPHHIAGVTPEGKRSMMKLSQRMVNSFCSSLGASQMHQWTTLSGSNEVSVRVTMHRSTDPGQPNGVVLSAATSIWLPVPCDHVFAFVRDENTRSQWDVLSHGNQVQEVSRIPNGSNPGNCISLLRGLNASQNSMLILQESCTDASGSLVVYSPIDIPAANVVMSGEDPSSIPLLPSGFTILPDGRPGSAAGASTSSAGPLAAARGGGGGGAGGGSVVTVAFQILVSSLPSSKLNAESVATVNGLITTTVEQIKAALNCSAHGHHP

T3: URL1 (UPWARD ROLLED LEAF1), HD-ZIP IV family member RICE OUTERMOST CELL-SPECIFIC 8 (ROC8), yeast two-hybrid fusion (rice (Oryza sativa L.)) (UniProt Q69T58)
T3 sequence: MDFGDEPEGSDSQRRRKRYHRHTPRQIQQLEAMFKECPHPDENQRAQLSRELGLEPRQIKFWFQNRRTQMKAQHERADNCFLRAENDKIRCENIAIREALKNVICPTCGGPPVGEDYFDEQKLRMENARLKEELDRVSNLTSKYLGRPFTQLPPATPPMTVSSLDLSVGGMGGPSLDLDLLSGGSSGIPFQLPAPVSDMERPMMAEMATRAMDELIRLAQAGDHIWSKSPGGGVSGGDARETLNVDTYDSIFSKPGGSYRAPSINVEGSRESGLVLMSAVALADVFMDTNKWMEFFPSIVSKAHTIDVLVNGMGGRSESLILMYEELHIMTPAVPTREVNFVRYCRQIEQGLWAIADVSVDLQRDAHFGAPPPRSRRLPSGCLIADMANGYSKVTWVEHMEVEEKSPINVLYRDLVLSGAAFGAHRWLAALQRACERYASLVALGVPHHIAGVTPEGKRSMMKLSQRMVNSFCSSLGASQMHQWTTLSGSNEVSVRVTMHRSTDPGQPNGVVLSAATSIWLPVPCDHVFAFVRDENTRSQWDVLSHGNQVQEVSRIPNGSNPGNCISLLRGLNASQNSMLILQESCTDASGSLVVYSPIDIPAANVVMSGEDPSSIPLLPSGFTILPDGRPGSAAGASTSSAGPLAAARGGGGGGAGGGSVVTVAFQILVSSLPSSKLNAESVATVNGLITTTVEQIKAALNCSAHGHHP


Columns and labels:
[1] = target: T1, ROC5 fused to the N- or C-terminal part of firefly luciferase (rice (Oryza sativa L.)); experiment: split reporter; firefly luciferase complementation imaging (LCI); NLUC and CLUC fusions co-expressed by Agrobacterium infiltration in the same N. benthamiana leaf; luciferin sprayed, LUC signal imaged and quantified
[2] = target: T2, URL1 (ROC8) fused to the N- or C-terminal part of firefly luciferase (rice (Oryza sativa L.)); experiment: as above
[3] = target: T3, URL1 (UPWARD ROLLED LEAF1), HD-ZIP IV family member RICE OUTERMOST CELL-SPECIFIC 8 (ROC8), yeast two-hybrid fusion (rice (Oryza sativa L.)); experiment: two-hybrid; full-length URL1 and ROC5 in pGBKT7 or pGADT7; yeast strain AH109; growth on SD-Leu-Trp-His with 15 mM 3-AT and liquid beta-galactosidase activity assay

binding [1]	binding [2]	binding [3]	Binder
binds	binds	–	ROC5 fused to the N- or C-terminal part of firefly luciferase (protein, UniProt Q6EPF0 1-804) MSFGGLFDGGGGGGMQFPFASGFASSPALSLALDNAGGGIGGRMLGGGAGAGSSAGGAMTRDTEAENDSRSGSDHLDAISAAGEDDVEDAEPSNSRKRKKRYHRHTPQQIQELEALFKECPHPDEKQRAELSRRLSLDARQVKFWFQNRRTQMKTQLERHENALLKQENDKLRAENMTIREAMRSPMCGSCGSPAMLGEVSLEEQHLRIENARLKDELNRVCALATKFLGKPISLLSPPPLLQPHLSLPMPNSSLELAIGGIGGLGSLGTLPGCMNEFAGGVSSPMGTVITPARATGAAIPSLVGNIDRSVFLELAISAMDELVKMAQMDDPLWVPALPGSPSKEVLNFEEYLHSFLPCIGMKPAGYVSEASRESGLVIIDNSLALVETLMDERRWSDMFSCMIAKATVLEEVSTGIAGSRNGALLLMKAELQVLSPLVPIREVTFLRFCKQLAEGAWAVVDVSIDGLVRDHNSGTAPTGGNVKCRRVPSGCVMQDTPNGYCKVTWVEHTEYDEASVHQLYRPLLRSGLAFGARRWLATLQRQCECLAILMSSATVTANDSTAISQEGKRSMLKLARRMTENFCAGVSASSAREWSKLDGATGSIGEDVRVMARKSVSEPGEPPGVVLSAATSVWVPVAPEKLFNFLRDEQLRAEWDILSNGGPMQEMTQIAKGQRDGNSVSLLRASAVSANQSSMLILQETCTDASGSIVVYAPVDIPAMQLVMNGGDSTYVALLPSGFAILPDGPRIGATGYETGGSLLTVAFQILVNNQPTAKLTVESVETVNNLISCTIKKIKTALQCDA
binds	binds	–	URL1 (ROC8) fused to the N- or C-terminal part of firefly luciferase (protein, UniProt Q69T58 1-710) MDFGDEPEGSDSQRRRKRYHRHTPRQIQQLEAMFKECPHPDENQRAQLSRELGLEPRQIKFWFQNRRTQMKAQHERADNCFLRAENDKIRCENIAIREALKNVICPTCGGPPVGEDYFDEQKLRMENARLKEELDRVSNLTSKYLGRPFTQLPPATPPMTVSSLDLSVGGMGGPSLDLDLLSGGSSGIPFQLPAPVSDMERPMMAEMATRAMDELIRLAQAGDHIWSKSPGGGVSGGDARETLNVDTYDSIFSKPGGSYRAPSINVEGSRESGLVLMSAVALADVFMDTNKWMEFFPSIVSKAHTIDVLVNGMGGRSESLILMYEELHIMTPAVPTREVNFVRYCRQIEQGLWAIADVSVDLQRDAHFGAPPPRSRRLPSGCLIADMANGYSKVTWVEHMEVEEKSPINVLYRDLVLSGAAFGAHRWLAALQRACERYASLVALGVPHHIAGVTPEGKRSMMKLSQRMVNSFCSSLGASQMHQWTTLSGSNEVSVRVTMHRSTDPGQPNGVVLSAATSIWLPVPCDHVFAFVRDENTRSQWDVLSHGNQVQEVSRIPNGSNPGNCISLLRGLNASQNSMLILQESCTDASGSLVVYSPIDIPAANVVMSGEDPSSIPLLPSGFTILPDGRPGSAAGASTSSAGPLAAARGGGGGGAGGGSVVTVAFQILVSSLPSSKLNAESVATVNGLITTTVEQIKAALNCSAHGHHP
–	–	binds	URL1 (UPWARD ROLLED LEAF1), HD-ZIP IV family member RICE OUTERMOST CELL-SPECIFIC 8 (ROC8), yeast two-hybrid fusion (protein, UniProt Q69T58 1-710) MDFGDEPEGSDSQRRRKRYHRHTPRQIQQLEAMFKECPHPDENQRAQLSRELGLEPRQIKFWFQNRRTQMKAQHERADNCFLRAENDKIRCENIAIREALKNVICPTCGGPPVGEDYFDEQKLRMENARLKEELDRVSNLTSKYLGRPFTQLPPATPPMTVSSLDLSVGGMGGPSLDLDLLSGGSSGIPFQLPAPVSDMERPMMAEMATRAMDELIRLAQAGDHIWSKSPGGGVSGGDARETLNVDTYDSIFSKPGGSYRAPSINVEGSRESGLVLMSAVALADVFMDTNKWMEFFPSIVSKAHTIDVLVNGMGGRSESLILMYEELHIMTPAVPTREVNFVRYCRQIEQGLWAIADVSVDLQRDAHFGAPPPRSRRLPSGCLIADMANGYSKVTWVEHMEVEEKSPINVLYRDLVLSGAAFGAHRWLAALQRACERYASLVALGVPHHIAGVTPEGKRSMMKLSQRMVNSFCSSLGASQMHQWTTLSGSNEVSVRVTMHRSTDPGQPNGVVLSAATSIWLPVPCDHVFAFVRDENTRSQWDVLSHGNQVQEVSRIPNGSNPGNCISLLRGLNASQNSMLILQESCTDASGSLVVYSPIDIPAANVVMSGEDPSSIPLLPSGFTILPDGRPGSAAGASTSSAGPLAAARGGGGGGAGGGSVVTVAFQILVSSLPSSKLNAESVATVNGLITTTVEQIKAALNCSAHGHHP
